Measurements published in patent US9399016B2 (UCL BUSINESS PLC, priority 2006, dated 2016).

Assay: peptide made by a vendor (peptide synthesis; Fmoc-Gly preloaded NovaSyn TGT resin or Fmoc-Gly-2-Cl-Trt-resin; HBTU (in DMF) and DIPEA (in NMP))
Conditions: whole synthesis, reverse phase HPLC, scale of the general procedure 20 μmol

Substance	final HPLC purity [%]
(K)16GACYGLPHKFCG	85
(K)16RVRRGACYGLPHKFCG	96
